Assay: in situ perfusion method of the rectum (perfusate recirculated through the rat rectum; drug remaining in the perfusate)

Q: Which “effect of sodium salicylate on the absorption of lidocaine” value (Figures 2 and 3, amount absorbed against time and pH, particularly evident below a pH of 7.0) does the source give for `CCN(CC)CC(=O)Nc1c(C)cccc1C` [lidocaine, 2-(Diethylamino)-N-(2,6-dimethyl-phenyl)acetamide] here?
A: Its value is “accelerating effect”.

Q: And the “absorption rate in the presence of the salicylate or its acidic form” value (below a pH of 6.0, appears to increase at the lower pH values)?
A: Its value is “substantial”.

Q: And the “rate of absorption of the drug by itself” value (below a pH of 6.0, no adjuvant)?
A: Its value is “approaches zero”.
